Data from PMC7762994 (Viruses, 2020).
These are yes or no findings as the source states them, for the method shown. In cells and extracts the contact can be indirect. Some entries that bind do so weakly or less than the wild type.

Chains of the proteins cited; added tags and fusions are not shown.
UniProt P0DMV8: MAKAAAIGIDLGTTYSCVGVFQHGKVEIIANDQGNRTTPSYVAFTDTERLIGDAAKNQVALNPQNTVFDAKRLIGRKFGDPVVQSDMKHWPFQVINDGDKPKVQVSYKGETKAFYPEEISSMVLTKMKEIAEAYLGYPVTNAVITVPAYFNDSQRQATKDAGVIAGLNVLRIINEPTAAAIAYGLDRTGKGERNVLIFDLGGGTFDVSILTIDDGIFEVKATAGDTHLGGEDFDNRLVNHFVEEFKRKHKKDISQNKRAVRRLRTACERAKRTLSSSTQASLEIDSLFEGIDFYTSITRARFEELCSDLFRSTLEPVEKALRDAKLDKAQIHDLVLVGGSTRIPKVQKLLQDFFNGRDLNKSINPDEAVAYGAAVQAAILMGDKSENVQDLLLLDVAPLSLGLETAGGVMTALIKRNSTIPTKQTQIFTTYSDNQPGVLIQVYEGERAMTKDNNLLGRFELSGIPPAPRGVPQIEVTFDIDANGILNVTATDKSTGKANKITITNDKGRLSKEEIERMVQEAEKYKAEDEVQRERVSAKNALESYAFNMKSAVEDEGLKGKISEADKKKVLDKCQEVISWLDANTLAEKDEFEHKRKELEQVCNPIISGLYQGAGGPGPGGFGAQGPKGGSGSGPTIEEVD
UniProt P27318: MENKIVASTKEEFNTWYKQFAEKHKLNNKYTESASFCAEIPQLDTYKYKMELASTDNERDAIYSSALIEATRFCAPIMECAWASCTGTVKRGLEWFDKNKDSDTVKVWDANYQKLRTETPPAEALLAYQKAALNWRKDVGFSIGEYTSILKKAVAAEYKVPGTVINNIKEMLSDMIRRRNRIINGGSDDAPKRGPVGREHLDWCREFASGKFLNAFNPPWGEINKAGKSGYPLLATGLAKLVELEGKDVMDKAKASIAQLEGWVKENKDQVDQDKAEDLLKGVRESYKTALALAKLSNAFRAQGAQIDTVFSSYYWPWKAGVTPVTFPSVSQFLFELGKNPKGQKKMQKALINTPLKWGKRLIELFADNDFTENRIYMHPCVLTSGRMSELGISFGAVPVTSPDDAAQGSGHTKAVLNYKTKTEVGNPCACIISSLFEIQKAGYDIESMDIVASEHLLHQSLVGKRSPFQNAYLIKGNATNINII

Target: Hsp70 (protein product of the HSPA1A gene) (human (endogenous in Hek293T)) (UniProt P0DMV8)
Assay: co-IP

Hazara virus (HAZV) nucleoprotein (from UniProt P27318 1-485)
binding: binds
